Data reported in PMC11672316, “Identification of ANXA1 as a Novel Upstream Negative Regulator of Notch1 Function in AML” (Advanced Science, 2024).
These are yes or no findings as the source states them, for the method shown. For some assays here: Binding seen in cells or lysates may run through a third protein. Some entries that bind do so weakly or less than the wild type. Where a sequence is shown, tags or fusion partners need not be part of it.

B1: NICD-5l peptide (peptide)
peptide: KSALHWAAAVNNVDAAVVLLKNGANKDMQNNR
notes: also called NICD-5 linear peptide; source: synthetic peptide (solid phase, Wang resin)

What was measured:
[1] = molecular target: T1, GST-tagged full-length Annexin A1 (ANXA1) (UniProt P04083); assay: pull-down; GST-tagged ANXA1 as bait, Notch1 from the cell lysate of sgANXA1 and control cell lines, in vitro; only the target purified
T1 sequence: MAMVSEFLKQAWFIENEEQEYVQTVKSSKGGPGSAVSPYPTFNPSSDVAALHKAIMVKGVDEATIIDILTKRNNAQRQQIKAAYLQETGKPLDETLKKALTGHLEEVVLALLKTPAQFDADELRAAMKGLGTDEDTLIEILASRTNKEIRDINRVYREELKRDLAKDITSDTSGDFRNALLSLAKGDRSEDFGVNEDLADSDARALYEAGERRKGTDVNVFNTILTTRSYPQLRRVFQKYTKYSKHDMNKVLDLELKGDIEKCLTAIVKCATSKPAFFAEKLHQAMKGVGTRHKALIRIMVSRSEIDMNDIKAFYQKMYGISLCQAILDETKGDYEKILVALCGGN

[2] = molecular target: T1, GST-tagged full-length Annexin A1 (ANXA1); assay: BLI; synthetic peptides of the ankyrin domain of NICD at increasing concentrations with GST-ANXA1; both purified

| binding [1] | binding [2] | Molecule |
| --- | --- | --- |
| binds |  | Notch1 in the cell lysate (from UniProt P46531 19-2555) |
|  | binds | B1 |
